Data as given in PubChem BioAssay AID1259308 (NCATS, 2017)
The whole screen tested about 59,000 reagents; this is a part drawn at random. Over the whole deposit, about 1,510 (2.6%) are marked active. 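Calls use total luciferase alone and ignore viability, so some active siRNAs may act by altering cell number.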 Reagents against one gene are numbered here. Not all columns of the deposit are shown. Reagent sequences are not shown.

Purpose: 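Knock-downs that increase output of a recombinant reporter protein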 (primary screen)
Cell system: human HEK293 embryonic kidney cells stably expressing firefly luciferase (HEK-CMV-Luc2-Hygro)
Reagent: single siRNA against human genes, 0.8 pmol siRNA per well
Timing: 72 h
Read-out: 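Reporter luminescence and viable-cell signal on separate replicate plates, given as percent of non-targeting control and median/MAD z-scores, plus per-cell luciferase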
Reading the numbers: total luciferase, z-score and total luciferase, % of control: higher = more reporter protein produced; luciferase per cell, z-score: higher = more reporter output per viable cell
Hit rule: 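Active when the median/MAD z-score for overall luciferase is greater than 3; a gene was taken forward for validation with new siRNAs if at least two of its three siRNAs passed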
Calls: active = raised luciferase; inactive = no rise

total luciferase, z-score | total luciferase, % of control | luciferase per cell, z-score | activity call | gene knocked down | reagent no.
1.78 | 117 | 1.45 | inactive | PAK6-AS1 | 1
-0.989 | 62.2 | -1.42 | inactive | PAK6-AS1 | 2
-0.277 | 76.4 | -1.32 | inactive | PAK6-AS1 | 3
0.0817 | 83.5 | -0.43 | inactive | CLEC2D | 1
-1.07 | 60.5 | -1.67 | inactive | CLEC2D | 2
0.289 | 87.6 | 1.97 | inactive | CLEC2D | 3
1.07 | 103 | 1.29 | inactive | UBE2C | 1
0.0647 | 83.2 | -0.643 | inactive | UBE2C | 2
-0.772 | 66.5 | -1.44 | inactive | UBE2C | 3
-0.502 | 71.9 | -0.402 | inactive | USP32 | 1
0.0224 | 82.3 | -0.302 | inactive | USP32 | 2
-1.92 | 43.8 | -2.24 | inactive | USP32 | 3
0.0563 | 83 | -0.746 | inactive | MPG | 1
0.996 | 102 | 0.765 | inactive | MPG | 2
2.43 | 130 | 1.9 | inactive | MPG | 3
1.14 | 105 | 2.84 | inactive | ZC3H15 | 1
-0.0445 | 81 | 0.134 | inactive | ZC3H15 | 2
1.44 | 111 | 1.85 | inactive | ZC3H15 | 3
3 | 142 | 2.37 | active | HOOK2 | 1
0.8 | 97.8 | 0.0724 | inactive | HOOK2 | 2
0.192 | 85.7 | -0.197 | inactive | HOOK2 | 3
-0.0232 | 81.4 | -0.44 | inactive | LOC729040 (retired record) | 1
-0.708 | 67.8 | -0.728 | inactive | LOC729040 (retired record) | 2
-1.05 | 60.9 | -0.488 | inactive | LOC729040 (retired record) | 3
-1.08 | 60.4 | -0.989 | inactive | JKAMP | 1
-1.52 | 51.6 | -1.22 | inactive | JKAMP | 2
-0.802 | 65.9 | -1.13 | inactive | JKAMP | 3
1.35 | 109 | 0.461 | inactive | LINC01168 | 1
4.59 | 173 | 2.04 | active | LINC01168 | 2
-2.36 | 35 | -2.04 | inactive | LINC01168 | 3
-0.672 | 68.5 | 0.224 | inactive | OR2W5 | 1
0.893 | 99.7 | 0.11 | inactive | OR2W5 | 2
-0.522 | 71.5 | 1.44 | inactive | OR2W5 | 3
-0.965 | 62.7 | -1.03 | inactive | OR4D10 | 1
-0.454 | 72.9 | -0.541 | inactive | OR4D10 | 2
-0.323 | 75.5 | -0.449 | inactive | OR4D10 | 3
0.164 | 85.2 | -0.276 | inactive | VGLL4 | 1
-0.175 | 78.4 | -0.124 | inactive | VGLL4 | 2
1.33 | 108 | 0.274 | inactive | VGLL4 | 3

3 consecutive records from above, for reference:
total luciferase, z-score | total luciferase, % of control | luciferase per cell, z-score | activity call | gene knocked down | reagent no.
-0.522 | 71.5 | 1.44 | inactive | OR2W5 | 3
-0.965 | 62.7 | -1.03 | inactive | OR4D10 | 1
-0.454 | 72.9 | -0.541 | inactive | OR4D10 | 2
